This is an account of results in article PMC5998080, “Structural and functional analysis of mRNA export regulation by the nuclear pore complex” (Nature Communications, 2018).

For at least one entry, the source does not settle the construct or the ends of the probe. A weaker result is weaker than the reference pair of the same experiment. Protein sequences can lack the tags named with them. At least one verdict was read from the data and is not stated in words by the source.

This data set has as its target T1, DDX19 (wild type) (Homo sapiens) (UniProt Q9UMR2).
T1 sequence (looked up, limits assumed): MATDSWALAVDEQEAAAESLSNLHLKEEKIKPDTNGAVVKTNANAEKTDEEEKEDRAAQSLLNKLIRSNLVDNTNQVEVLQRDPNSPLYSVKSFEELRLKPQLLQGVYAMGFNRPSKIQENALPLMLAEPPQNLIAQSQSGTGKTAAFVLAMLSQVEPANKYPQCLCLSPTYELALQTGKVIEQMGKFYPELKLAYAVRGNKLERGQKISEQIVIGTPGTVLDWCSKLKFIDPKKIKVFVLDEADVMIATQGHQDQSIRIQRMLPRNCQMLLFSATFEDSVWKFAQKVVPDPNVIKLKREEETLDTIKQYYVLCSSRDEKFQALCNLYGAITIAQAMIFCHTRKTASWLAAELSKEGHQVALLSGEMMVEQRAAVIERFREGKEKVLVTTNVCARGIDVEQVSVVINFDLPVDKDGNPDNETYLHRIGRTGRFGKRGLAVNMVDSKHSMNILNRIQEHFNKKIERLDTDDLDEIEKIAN
In words: EMSA. The conditions noted are these: 1 mM AMP-PNP, 2 mM MgCl2, 20 mM TRIS pH 8.0, 100 mM NaCl, 2 mM MgCl2, 1 mM DTT, 10% glycerol, 25 ng RNA in 10 ul, 20 min on ice, 1.4% native agarose gel, 0.25x TBE, room temperature, recombinant protein, protein details: His6 removed by PreScission protease, label: none (SYBR gold stain).

As for “GUUUUUUUUUUUUUUUUUUUUCUCGAUCCGUAGUGAUCUACUGAGCAUCUCCC [53-nt ssRNA probe]”, the binding result (+ 2 uM Nup214NTD: binding inhibited) was “binds more weakly” and the binding result (DDX19 1 uM alone) is “binds”.
